The values below come from publication doi:10.1101/2020.03.23.004119.

By UniProt entry, the sequences of proteins in these tests, tags left out.
UniProt Q16877: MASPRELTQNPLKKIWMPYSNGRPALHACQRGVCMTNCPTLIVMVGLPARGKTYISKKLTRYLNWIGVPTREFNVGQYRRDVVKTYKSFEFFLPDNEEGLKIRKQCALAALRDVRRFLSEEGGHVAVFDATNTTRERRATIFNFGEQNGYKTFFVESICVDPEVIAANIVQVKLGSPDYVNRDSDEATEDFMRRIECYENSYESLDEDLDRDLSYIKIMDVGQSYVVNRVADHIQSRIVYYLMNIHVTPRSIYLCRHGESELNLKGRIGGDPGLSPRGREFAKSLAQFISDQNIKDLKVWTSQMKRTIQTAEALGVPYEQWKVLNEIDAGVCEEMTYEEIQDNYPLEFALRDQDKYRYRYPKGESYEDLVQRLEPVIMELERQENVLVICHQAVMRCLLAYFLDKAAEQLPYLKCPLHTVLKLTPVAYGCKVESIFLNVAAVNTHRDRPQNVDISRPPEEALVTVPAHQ
UniProt O60725: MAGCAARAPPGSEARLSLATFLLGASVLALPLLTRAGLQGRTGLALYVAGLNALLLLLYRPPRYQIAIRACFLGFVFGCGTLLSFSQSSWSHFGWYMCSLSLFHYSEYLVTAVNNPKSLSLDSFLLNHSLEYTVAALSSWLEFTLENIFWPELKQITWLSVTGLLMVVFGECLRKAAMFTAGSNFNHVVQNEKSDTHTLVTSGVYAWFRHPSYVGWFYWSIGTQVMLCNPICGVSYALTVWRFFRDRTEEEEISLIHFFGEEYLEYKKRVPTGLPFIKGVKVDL

Results are given in words; binding and its absence hold for the method and conditions named. In cells and extracts the contact can be indirect. A yes stands for co-enrichment or nearness to the bait. Other partners may have been found.

The test concerns the target FLAG-tagged human PFKFB4 (human) (UniProt Q16877). In words: affinity purification with mass spectrometry.

For the substance “isoprenylcystein carboxyl methyl transferase (ICMT), endogenous (from UniProt O60725 1-284) (enzyme)”, the binding result is listed as “binds”.
